Results published in the supplement of paper PMC10849652.
This is one part of the list.

The chains behind the UniProt entries cited, without tags or fusion partners. Where a name states a change or a piece, a line headed by the entry shows the natural chain unless it says otherwise.
UniProt Q9H3P2, whole entry, looked up: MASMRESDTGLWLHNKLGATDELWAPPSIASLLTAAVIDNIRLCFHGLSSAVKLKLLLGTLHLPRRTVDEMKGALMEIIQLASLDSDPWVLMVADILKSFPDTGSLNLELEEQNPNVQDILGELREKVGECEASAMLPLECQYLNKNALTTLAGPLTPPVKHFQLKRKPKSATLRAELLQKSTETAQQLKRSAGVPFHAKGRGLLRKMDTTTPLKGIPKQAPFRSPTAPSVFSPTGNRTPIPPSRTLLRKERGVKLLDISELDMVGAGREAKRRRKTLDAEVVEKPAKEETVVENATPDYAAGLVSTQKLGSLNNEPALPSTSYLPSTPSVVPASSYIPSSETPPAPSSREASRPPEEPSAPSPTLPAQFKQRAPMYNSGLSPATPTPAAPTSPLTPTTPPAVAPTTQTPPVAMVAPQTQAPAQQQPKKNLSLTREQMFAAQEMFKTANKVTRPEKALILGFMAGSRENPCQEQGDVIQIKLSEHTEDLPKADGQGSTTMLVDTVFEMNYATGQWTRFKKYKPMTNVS
UniProt Q9HBL8: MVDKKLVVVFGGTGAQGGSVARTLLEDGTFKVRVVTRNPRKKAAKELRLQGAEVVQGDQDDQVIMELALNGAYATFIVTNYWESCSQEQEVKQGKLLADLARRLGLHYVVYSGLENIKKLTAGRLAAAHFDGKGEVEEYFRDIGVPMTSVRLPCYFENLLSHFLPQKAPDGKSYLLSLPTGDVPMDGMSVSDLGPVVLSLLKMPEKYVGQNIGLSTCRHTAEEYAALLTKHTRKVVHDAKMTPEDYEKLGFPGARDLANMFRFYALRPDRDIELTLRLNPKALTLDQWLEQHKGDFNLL
UniProt O14524: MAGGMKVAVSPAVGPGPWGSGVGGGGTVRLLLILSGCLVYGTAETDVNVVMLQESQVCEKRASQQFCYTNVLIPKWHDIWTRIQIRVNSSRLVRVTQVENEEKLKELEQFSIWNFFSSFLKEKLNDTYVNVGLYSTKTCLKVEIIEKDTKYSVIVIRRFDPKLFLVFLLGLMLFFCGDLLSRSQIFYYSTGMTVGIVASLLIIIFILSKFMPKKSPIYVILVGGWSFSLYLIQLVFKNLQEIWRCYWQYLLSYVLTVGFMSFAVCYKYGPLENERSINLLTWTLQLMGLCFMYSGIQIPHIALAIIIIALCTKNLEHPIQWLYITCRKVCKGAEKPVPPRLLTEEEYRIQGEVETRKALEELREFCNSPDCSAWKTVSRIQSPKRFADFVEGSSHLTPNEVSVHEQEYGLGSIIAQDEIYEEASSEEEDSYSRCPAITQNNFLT
UniProt Q12986: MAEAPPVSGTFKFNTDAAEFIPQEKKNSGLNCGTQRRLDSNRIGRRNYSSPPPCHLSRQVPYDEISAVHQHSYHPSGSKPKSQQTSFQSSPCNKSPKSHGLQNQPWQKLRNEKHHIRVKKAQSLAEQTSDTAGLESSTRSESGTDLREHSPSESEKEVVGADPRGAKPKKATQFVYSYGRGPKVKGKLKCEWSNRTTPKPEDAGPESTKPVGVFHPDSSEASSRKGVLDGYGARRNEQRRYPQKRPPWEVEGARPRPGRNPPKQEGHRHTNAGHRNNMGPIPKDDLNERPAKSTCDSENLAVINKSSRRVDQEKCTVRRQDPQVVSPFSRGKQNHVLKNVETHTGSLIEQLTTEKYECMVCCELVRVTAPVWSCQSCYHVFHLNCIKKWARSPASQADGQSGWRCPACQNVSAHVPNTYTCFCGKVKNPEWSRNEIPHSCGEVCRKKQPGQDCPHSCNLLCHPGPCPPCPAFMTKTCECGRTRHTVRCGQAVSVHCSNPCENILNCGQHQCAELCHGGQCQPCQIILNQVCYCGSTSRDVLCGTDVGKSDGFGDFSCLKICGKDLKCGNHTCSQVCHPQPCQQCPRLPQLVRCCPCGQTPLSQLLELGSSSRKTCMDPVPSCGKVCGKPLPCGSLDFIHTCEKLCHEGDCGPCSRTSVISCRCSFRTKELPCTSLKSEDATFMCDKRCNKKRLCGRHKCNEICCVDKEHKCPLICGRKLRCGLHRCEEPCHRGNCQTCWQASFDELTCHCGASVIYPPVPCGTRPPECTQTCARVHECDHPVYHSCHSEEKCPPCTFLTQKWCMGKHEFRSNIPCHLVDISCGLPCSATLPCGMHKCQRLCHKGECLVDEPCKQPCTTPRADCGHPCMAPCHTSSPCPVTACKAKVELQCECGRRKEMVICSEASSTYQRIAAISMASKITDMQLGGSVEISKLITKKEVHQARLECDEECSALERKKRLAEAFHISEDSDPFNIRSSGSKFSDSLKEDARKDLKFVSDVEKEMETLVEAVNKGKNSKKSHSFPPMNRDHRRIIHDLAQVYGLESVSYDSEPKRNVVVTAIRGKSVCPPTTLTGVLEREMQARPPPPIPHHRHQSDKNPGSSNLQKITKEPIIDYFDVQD
UniProt O00567: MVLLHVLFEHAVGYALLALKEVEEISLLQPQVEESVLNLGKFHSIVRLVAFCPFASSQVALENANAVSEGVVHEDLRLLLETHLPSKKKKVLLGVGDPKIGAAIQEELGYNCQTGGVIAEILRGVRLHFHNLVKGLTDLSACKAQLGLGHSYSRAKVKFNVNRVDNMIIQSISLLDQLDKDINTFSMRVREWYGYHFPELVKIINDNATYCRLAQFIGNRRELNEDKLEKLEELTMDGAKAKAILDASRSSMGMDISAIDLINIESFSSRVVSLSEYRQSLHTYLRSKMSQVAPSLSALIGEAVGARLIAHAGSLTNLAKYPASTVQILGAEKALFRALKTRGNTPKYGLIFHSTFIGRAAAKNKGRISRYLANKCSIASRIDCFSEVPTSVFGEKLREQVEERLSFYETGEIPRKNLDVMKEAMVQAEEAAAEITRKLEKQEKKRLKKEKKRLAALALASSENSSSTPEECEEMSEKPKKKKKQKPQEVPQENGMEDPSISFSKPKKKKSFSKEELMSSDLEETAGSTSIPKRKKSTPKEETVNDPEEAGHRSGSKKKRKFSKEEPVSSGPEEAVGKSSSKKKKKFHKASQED
UniProt Q9BYG3: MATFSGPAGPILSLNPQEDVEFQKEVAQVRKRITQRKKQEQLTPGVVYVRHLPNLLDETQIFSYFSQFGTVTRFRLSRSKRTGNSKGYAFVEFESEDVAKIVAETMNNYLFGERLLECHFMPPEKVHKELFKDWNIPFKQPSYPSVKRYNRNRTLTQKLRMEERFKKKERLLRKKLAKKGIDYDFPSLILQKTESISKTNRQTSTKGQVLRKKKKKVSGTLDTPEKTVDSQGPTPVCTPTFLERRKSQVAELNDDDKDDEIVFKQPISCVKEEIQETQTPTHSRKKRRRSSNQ
UniProt Q9Y5B8, whole entry, looked up: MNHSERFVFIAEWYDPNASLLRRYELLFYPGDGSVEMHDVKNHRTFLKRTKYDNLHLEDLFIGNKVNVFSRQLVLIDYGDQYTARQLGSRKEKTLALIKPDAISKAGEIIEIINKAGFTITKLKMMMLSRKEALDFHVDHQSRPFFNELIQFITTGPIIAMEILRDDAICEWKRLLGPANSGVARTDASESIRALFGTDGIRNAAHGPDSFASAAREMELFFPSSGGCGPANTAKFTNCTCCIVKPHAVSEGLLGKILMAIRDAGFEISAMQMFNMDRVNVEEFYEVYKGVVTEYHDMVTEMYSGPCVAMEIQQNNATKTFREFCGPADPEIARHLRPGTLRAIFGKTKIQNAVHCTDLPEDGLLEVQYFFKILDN
UniProt Q13287: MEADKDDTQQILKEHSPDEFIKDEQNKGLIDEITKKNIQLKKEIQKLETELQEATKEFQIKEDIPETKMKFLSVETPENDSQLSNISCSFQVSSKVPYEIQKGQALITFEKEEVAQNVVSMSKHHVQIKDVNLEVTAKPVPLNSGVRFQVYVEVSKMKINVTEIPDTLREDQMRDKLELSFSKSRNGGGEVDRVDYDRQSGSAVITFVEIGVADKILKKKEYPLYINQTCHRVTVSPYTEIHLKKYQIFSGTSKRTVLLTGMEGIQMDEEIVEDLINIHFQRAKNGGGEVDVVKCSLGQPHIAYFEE
UniProt P40261: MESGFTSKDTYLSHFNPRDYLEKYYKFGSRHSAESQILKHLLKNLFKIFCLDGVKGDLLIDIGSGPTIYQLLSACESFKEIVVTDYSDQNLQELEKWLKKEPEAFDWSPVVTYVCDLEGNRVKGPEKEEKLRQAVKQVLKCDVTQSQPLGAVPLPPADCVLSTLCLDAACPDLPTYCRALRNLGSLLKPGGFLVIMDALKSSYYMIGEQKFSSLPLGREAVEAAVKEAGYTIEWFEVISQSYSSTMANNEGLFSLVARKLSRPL
UniProt P51956: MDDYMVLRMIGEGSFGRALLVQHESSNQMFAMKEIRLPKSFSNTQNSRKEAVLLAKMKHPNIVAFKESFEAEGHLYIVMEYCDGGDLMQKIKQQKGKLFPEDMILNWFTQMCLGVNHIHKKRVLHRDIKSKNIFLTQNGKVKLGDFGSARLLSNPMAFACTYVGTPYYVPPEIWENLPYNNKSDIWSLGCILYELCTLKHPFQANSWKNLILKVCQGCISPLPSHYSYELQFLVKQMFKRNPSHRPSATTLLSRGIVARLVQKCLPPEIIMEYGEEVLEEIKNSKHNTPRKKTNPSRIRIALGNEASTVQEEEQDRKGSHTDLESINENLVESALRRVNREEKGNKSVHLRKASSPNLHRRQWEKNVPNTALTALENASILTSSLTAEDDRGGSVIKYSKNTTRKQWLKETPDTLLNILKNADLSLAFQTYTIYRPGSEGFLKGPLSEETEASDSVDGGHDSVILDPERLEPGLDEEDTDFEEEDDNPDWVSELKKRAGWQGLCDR
UniProt Q9Y639: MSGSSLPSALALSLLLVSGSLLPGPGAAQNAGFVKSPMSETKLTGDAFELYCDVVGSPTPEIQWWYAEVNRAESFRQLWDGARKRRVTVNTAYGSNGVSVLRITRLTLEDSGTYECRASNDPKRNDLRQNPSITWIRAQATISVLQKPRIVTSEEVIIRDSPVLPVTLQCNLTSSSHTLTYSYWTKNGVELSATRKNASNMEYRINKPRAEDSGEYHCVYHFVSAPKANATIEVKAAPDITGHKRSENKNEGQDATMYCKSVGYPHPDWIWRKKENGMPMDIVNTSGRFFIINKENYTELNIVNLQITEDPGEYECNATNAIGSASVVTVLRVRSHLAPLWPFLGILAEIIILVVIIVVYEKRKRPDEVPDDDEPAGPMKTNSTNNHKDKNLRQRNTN
UniProt Q9Y2X3: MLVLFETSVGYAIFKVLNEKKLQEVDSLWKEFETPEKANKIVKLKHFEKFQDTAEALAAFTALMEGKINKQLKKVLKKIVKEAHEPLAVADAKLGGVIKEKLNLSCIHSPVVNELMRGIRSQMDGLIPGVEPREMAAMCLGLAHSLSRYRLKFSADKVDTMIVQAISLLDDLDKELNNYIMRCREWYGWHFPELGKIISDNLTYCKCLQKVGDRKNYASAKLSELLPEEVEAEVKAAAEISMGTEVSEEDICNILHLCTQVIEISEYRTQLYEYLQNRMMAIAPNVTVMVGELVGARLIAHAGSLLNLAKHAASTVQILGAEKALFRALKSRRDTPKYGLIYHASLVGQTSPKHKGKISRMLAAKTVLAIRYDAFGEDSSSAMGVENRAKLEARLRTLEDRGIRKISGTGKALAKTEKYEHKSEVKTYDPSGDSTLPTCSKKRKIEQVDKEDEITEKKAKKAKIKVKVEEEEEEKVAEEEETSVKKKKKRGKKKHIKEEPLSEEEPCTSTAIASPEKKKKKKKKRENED
UniProt Q9UHY1: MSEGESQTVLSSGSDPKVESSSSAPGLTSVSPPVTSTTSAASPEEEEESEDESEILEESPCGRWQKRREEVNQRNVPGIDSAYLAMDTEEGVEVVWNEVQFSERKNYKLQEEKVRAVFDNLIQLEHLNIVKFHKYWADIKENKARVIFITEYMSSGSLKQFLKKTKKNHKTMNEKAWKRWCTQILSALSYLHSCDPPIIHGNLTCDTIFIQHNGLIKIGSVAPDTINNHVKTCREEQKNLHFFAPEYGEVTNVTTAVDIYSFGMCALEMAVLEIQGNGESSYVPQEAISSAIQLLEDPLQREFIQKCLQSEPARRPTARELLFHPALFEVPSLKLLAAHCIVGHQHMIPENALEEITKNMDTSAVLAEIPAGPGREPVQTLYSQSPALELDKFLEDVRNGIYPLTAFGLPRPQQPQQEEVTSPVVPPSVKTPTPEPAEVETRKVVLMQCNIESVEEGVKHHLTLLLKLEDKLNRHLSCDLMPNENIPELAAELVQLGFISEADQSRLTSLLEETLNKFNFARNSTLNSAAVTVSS
UniProt P06748, whole entry, looked up: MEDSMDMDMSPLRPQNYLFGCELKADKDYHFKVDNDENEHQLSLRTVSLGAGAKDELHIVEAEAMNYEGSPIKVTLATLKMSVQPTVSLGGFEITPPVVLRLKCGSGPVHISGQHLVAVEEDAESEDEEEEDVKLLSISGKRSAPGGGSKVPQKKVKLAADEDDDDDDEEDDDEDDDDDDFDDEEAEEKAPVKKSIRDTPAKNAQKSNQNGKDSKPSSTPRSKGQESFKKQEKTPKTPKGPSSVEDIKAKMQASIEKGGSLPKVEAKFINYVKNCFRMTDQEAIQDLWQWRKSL

Tests used:
Assay in all cases: log2 fold change, soluble protein after heating vs DMSO (PISA); higher = thermal stabilisation; K562 cells, 10 uM, 30 min; active = over 0.2 and 3.5 SD of the protein, either way, in both replicates (recomputed)
[1] = compound: NC(=O)Nc1cc(-c2cccc(F)c2)sc1C(=O)N[C@H]1CCCNC1
Procedure, shortened: (§1)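 For each measurement, 10 μM compound was applied for 30 min to K562 cells at 2×10^6 cells/mL. Aliquots were heated for 3 min across 48°C-58°C, pooled, and extracted in PBS with 0.5% NP-40 at 4°C; the supernatant after 21,000xg for 90 min was soluble protein. This was quantified by TMTpro 16plex LC-MS/MS with channel sums equalised, and thermal stability was reported relative to control samples from duplicates, on a log2 fold-change scale.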

[2] = compound: NC(=O)c1cnc(N[C@@H]2CCCC[C@@H]2N)nc1Nc1cccc(-n2nccn2)c1
Procedure, shortened: as §1

[3] = compound: NC1(c2ccc(-c3nc4ccn5c(=O)[nH]nc5c4cc3-c3ccccc3)cc2)CCC1
Procedure, shortened: as §1

[4] = compound: NCC(=O)Nc1ccc(-n2nc(C(F)(F)F)cc2-c2ccc3c(ccc4ccccc43)c2)cc1
Procedure, shortened: as §1

entinostat = compound: Nc1ccccc1NC(=O)c1ccc(CNC(=O)OCc2cccnc2)cc1 [entinostat]
Procedure, shortened: as §1

vorinostat = compound: O=C(CCCCCCC(=O)Nc1ccccc1)NO [vorinostat]
Procedure, shortened: as §1

citarinostat = compound: O=C(CCCCCCNC(=O)c1cnc(N(c2ccccc2)c2ccccc2Cl)nc1)NO [citarinostat]
Procedure, shortened: as §1

silmitasertib = compound: O=C(O)c1ccc2c(c1)nc(Nc1cccc(Cl)c1)c1ccncc12 [silmitasertib]
Procedure, shortened: as §1

[5] = compound: O=C1NC(=O)C(c2cnc3ccccn23)=C1c1cn2c3c(cc(F)cc13)CN(C(=O)N1CCCCC1)CC2
Procedure, shortened: as §1

[6] = compound: c1cc(OCCN2CCCCC2)cc(-c2n[nH]c3ccc(-c4nnc[nH]4)cc23)c1
Procedure, shortened: as §1

Measured: log2 fold change

NR2F6 (UniProt P10588)
inactive: [1] 0.048 | [2] 0.016 | [3] -0.049 | [4] -0.019 | entinostat 0.058 | vorinostat -0.107 | citarinostat 0.297 | silmitasertib 0.063 | [5] 0.04 | [6] -0.016

NFATC2IP (UniProt Q8NCF5)
inactive: [1] -0.016 | [2] -0.017 | [3] -0.087 | [4] -0.011 | entinostat 0.035 | vorinostat 0.078 | citarinostat 0.075 | silmitasertib -0.017 | [5] 0.02 | [6] -0.011

NMD3 (UniProt Q96D46)
inactive: [1] -0.159 | [2] -0.034 | [3] -0.098 | [4] -0.037 | entinostat -0.001 | vorinostat 0 | citarinostat 0.085 | silmitasertib -0.048 | [5] -0.071 | [6] -0.047

NHP2 (UniProt Q9NX24)
inactive: [1] 0.077 | [2] 0.087 | [3] 0.23 | [4] 0.09 | entinostat -0.117 | vorinostat -0.048 | citarinostat 0.013 | silmitasertib 0.145 | [5] 0.213 | [6] -0.106

NENF (UniProt Q9UMX5)
inactive: [1] 0.036 | [2] 0.018 | [3] 0.058 | [4] 0.009 | entinostat 0.001 | vorinostat -0.048 | citarinostat 0.005 | silmitasertib -0.003 | [5] -0.042 | [6] -0.048

NELFA (UniProt Q9H3P2)
inactive: [1] 0.038 | [2] -0.016 | [3] 0.142 | [4] -0.245 | entinostat 0.002 | vorinostat 0.061 | citarinostat -0.169 | silmitasertib 0.065 | [5] -0.183 | [6] 0.002

NRAS (UniProt P01111)
inactive: [1] -0.05 | [2] 0.034 | [3] 0.042 | [4] 0.045 | entinostat -0.027 | vorinostat -0.048 | citarinostat 0 | silmitasertib -0.038 | [5] 0.004 | [6] -0.021

NMRAL1 (UniProt Q9HBL8)
inactive: [1] 0.391 | [3] 0.717 | [4] -0.16 | entinostat -0.052 | vorinostat -0.139 | citarinostat -0.151 | silmitasertib 0.018 | [5] -0.005 | [6] 0.374
active: [2] 1.06

NEMP1 (UniProt O14524)
inactive: [1] -0.007 | [2] -0.204 | [3] -0.078 | [4] -0.181 | entinostat 0.028 | vorinostat 0.078 | citarinostat 0.026 | silmitasertib -0.019 | [5] -0.029 | [6] -0.113

NFX1 (UniProt Q12986)
active: [3] 0.659
inactive: [1] 0.157 | [2] 0.008 | [4] 0.045 | entinostat 0.014 | vorinostat -0.016 | citarinostat -0.033 | silmitasertib -0.006 | [5] -0.018 | [6] -0.019

NSFL1C isoform 5 (UniProt Q9UNZ2)
inactive: [1] 0.101 | [2] -0.038 | [3] -0.031 | [4] -0.042 | entinostat 0.044 | vorinostat -0.026 | citarinostat -0.009 | silmitasertib -0.001 | [5] 0.057 | [6] 0.011

NOP56 (UniProt O00567)
inactive: [1] 0.162 | [2] 0.14 | [3] 0.197 | [4] 0.103 | entinostat -0.084 | vorinostat 0.014 | citarinostat -0.058 | silmitasertib 0.096 | [5] 0.09 | [6] -0.156

NFYC (UniProt Q13952)
inactive: [1] 0.008 | [2] -0.079 | [3] -0.054 | [4] -0.027 | entinostat -0.034 | vorinostat -0.057 | citarinostat -0.002 | silmitasertib 0.024 | [5] -0.058 | [6] -0.044

NIFK (UniProt Q9BYG3)
inactive: [1] 0.014 | [2] 0.067 | [3] 0.097 | [4] 0.243 | entinostat -0.085 | vorinostat -0.122 | citarinostat -0.051 | silmitasertib 0.171 | [5] 0.338 | [6] -0.124

Retrieved one by one from the list above (2):
NR2F6 (UniProt P10588)
inactive: [1] 0.048 | [2] 0.016 | [3] -0.049 | [4] -0.019 | entinostat 0.058 | vorinostat -0.107 | citarinostat 0.297 | silmitasertib 0.063 | [5] 0.04 | [6] -0.016

NHP2 (UniProt Q9NX24)
inactive: [1] 0.077 | [2] 0.087 | [3] 0.23 | [4] 0.09 | entinostat -0.117 | vorinostat -0.048 | citarinostat 0.013 | silmitasertib 0.145 | [5] 0.213 | [6] -0.106

Following part.

NR2C2AP isoform 2 (UniProt Q86WQ0)
inactive: [1] -0.082 | [2] -0.131 | [3] -0.05 | [4] -0.094 | entinostat -0.02 | vorinostat -0.027 | citarinostat 0.079 | silmitasertib 0.062 | [5] -0.092 | [6] -0.035

NME2 isoform 2 (UniProt P22392)
inactive: [1] -0.024 | [2] -0.031 | [3] 0.051 | [4] -0.015 | entinostat -0.048 | vorinostat -0.03 | citarinostat 0.027 | silmitasertib 0.014 | [5] -0.04 | [6] -0.034

NME7 (UniProt Q9Y5B8)
inactive: [1] 0.159 | [2] -0.13 | [3] -0.184 | [4] 0.057 | entinostat 0.159 | vorinostat 0.145 | citarinostat 0.03 | silmitasertib 0.071 | [5] 0.05 | [6] 0.186

NMI (UniProt Q13287)
inactive: [1] -0.004 | [2] -0.033 | [3] -0.022 | [4] -0.035 | entinostat 0.002 | vorinostat -0.003 | citarinostat 0.002 | silmitasertib 0.001 | [5] -0.038 | [6] -0.01

NGLY1 (UniProt Q96IV0)
inactive: [1] -0.073 | [2] 0.059 | [3] -0.151 | [4] -0.109 | entinostat 0.025 | vorinostat 0.008 | citarinostat 0.079 | silmitasertib 0.079 | [5] 0.059 | [6] -0.059

NNMT (UniProt P40261)
inactive: [1] 0.013 | [2] -0.04 | [3] -0.179 | [4] -0.037 | entinostat -0.056 | vorinostat 0.128 | citarinostat -0.023 | silmitasertib 0.013 | [5] -0.042 | [6] 0.139

NEK3 (UniProt P51956)
inactive: [1] 0.09 | [2] 0.156 | [3] -0.119 | [4] 0.011 | entinostat 0.016 | vorinostat -0.256 | citarinostat 0.099 | silmitasertib 0.043 | [5] -0.017 | [6] -0.063

NMT2 (UniProt O60551)
active: [6] -0.491
inactive: [1] 0 | [2] -0.089 | [3] -0.168 | [4] -0.164 | entinostat -0.004 | vorinostat -0.049 | citarinostat 0.007 | silmitasertib -0.028 | [5] -0.017

NPTN (UniProt Q9Y639)
inactive: [1] 0.08 | [2] 0.051 | [3] 0.041 | [4] 0.087 | entinostat -0.158 | vorinostat -0.006 | citarinostat -0.011 | silmitasertib 0 | [5] 0.079 | [6] -0.058

NOP58 (UniProt Q9Y2X3)
inactive: [1] -0.012 | [2] 0.052 | [3] 0.316 | [4] 0.043 | entinostat -0.05 | vorinostat -0.087 | citarinostat -0.048 | silmitasertib 0.108 | [5] 0.082 | [6] -0.119

NRBP1 (UniProt Q9UHY1)
inactive: [1] -0.029 | [2] -0.037 | [3] -0.054 | [4] -0.033 | entinostat 0.011 | vorinostat -0.001 | citarinostat 0.037 | silmitasertib 0.002 | [5] -0.055 | [6] -0.002

NOL7 (UniProt Q9UMY1)
inactive: [1] 0.107 | [2] 0.131 | [3] 0.316 | [4] 0.177 | entinostat -0.079 | vorinostat -0.042 | citarinostat -0.101 | silmitasertib 0.166 | [5] 0.121 | [6] -0.218

NPM1 (UniProt P06748)
inactive: [1] 0.13 | [2] 0.073 | [3] 0.409 | [4] 0.146 | entinostat 0 | vorinostat -0.005 | citarinostat -0.12 | silmitasertib 0.177 | [5] 0.243 | [6] -0.154

NLN (UniProt Q9BYT8)
inactive: [1] 0.012 | [2] -0.038 | [3] -0.034 | [4] -0.021 | entinostat -0.018 | vorinostat 0.023 | citarinostat 0.103 | silmitasertib -0.044 | [5] -0.043 | [6] 0.026

NOLC1 isoform 2 (UniProt Q14978)
inactive: [1] 0.149 | [2] -0.031 | [3] -0.011 | [4] 0.014 | entinostat -0.043 | vorinostat 0.009 | citarinostat 0.109 | silmitasertib -0.037 | [5] -0.037 | [6] -0.183
